According to US4692511A, “Peptide antagonists for the C5a anaphylatoxin” (Immunetech Pharmaceuticals, priority 1984, dated 1987):
Part of at least one peptide drawing is inferred or uncertain, most often the ends. Peptide text beside a SMILES is read from it.

Biological target: T1, C5a receptor (Homo sapiens, UniProt P21730)
T1 sequence (P21730 1-350): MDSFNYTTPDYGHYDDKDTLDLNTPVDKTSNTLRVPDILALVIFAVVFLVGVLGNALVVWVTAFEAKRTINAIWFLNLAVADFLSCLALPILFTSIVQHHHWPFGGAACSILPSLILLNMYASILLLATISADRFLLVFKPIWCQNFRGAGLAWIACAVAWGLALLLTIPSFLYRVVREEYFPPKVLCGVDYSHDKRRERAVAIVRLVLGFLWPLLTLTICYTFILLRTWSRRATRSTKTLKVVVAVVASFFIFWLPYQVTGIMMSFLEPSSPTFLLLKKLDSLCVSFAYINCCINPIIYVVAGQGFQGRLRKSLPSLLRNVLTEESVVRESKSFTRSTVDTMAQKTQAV
Test: C5a receptor blocking activity of the peptides of the invention

| SMILES | C5a blocking activity |
| --- | --- |
| C[C@H](NC(=O)CNC(=O)[C@H](CC(=O)O)NC(=O)[C@@H](N)Cc1ccc(O)cc1)C(=O)O [Tyr-Asp-Gly-Ala] (H-YDGA-OH) | displays C5a blocking activity |
| C[C@H](NC(=O)CNC(=O)[C@@H](N)CC(=O)O)C(=O)N[C@@H](Cc1ccc(O)cc1)C(=O)O [Asp-Gly-Ala-Tyr] (H-DGAY-OH) | displays C5a blocking activity |
